In article PMC5398546, “Mini-G proteins: Novel tools for studying GPCRs in their active conformation” (PLoS ONE, 2017):

Target: T1, GFP-mini-Gs (human)
T1 construct: mini-Gs as in m7 (GαGTPase domain of Gαs, human, 3 deletions and 7 mutations); GFP joined to the N-terminus of the mini-G protein with a GGGGS linker; 54 kDa; also called GFP-mini-Gs fusion protein; source: E. coli, purified; not shown: GFP, N-terminal, kept
Experiment: fluorescent saturation binding assay (FSBA); DDM-solubilised His-tagged β1AR or A2AR immobilised on Ni2+-coated 96-well plate; GFP-mini-Gs 0 to 2.8 μM, 90 min on ice; specific binding = agonist minus inverse agonist condition; apparent KD, one-site fit
Details: one partner purified

B1: truncated wild type turkey β1-adrenergic receptor (construct βAR6) (receptor)
chain: ELLSQQWEAGMSLLMALVVLLIVAGNVLVIAAIGRTQRLQTLTNLFITSLACADLVMGLLVVPFGATLVVRGTWLWGSFLCECWTSLDVLCVTASIETLCVIAIDRYLAITSPFRYQSLMTRARAKVIICTVWAISALVSFLPIMMHWWRDEDPQALKCYQDPGCCDFVTNRAYAIASSIISFYIPLLIMIFVYLRVYREAKEQIRKIDRCEGRFYGSQEQPQPPPLPQHQPILGNGRASKRKTSRVMAMREHKALKTLGIIMGVFTLCWLPFFLVNIVNVFNRDLVPDWLFVFFNWLGYANSAFNPIIYCRSPDFRKAFKRLLCFPRKADRRLHAGGQPAPLPGGFISTLGSPEHSPGGTWSDCNGGTRGGSESSLEERHSKTSRSESKM
modifications: C-terminal His6 left out. Limits are not printed (ref. 27); 34-424 is taken by convention from the known truncated turkey beta1AR constructs of this group. Related 34-424 constructs may carry C116L …
  Kd: 200 nM
